Results from patent US20110098213 (published 2011).

Columns and labels:
[1] = general procedure: Fmoc solid-phase peptide synthesis; Fmoc-Rink resin (4-(2',4'-dimethoxyphenyl-Fmoc-aminomethyl)-phenoxypolystyrene resin, Bachem D-2080; 0.47 mmol/g); HOBt (HOAt and DIPEA for Fmoc-Glu(2-phenylisopropyloxy)-OH); conditions: whole synthesis, UV 214 and 254 nm, scale of the general procedure 0.10 mmol, hydrochloride
[2] = general procedure: Fmoc solid-phase peptide synthesis; Rink amide polystyrene; HOBt (HOAt and DIPEA for Fmoc-Glu(2-phenylisopropyloxy)-OH); conditions: whole synthesis, scale 0.10 mmol, hydrochloride

With “2-[2-(Hexadecanoylamino)ethoxy]ethoxyacetyl-Gly-Thr-Gln-His-Ser-Nle-c[Glu-Hyp-D-Phe-Arg-Trp-Lys]-NH2” as the substance, how does the “final HPLC purity” value [1] read?
Its value is 98%.

What about the isolated mass [2] of the same substance?
The isolated mass was 36.2 mg.

And the isolated yield [2]?
The isolated yield was 19%.
